{
  "source": "patent US5021408A",
  "about": "“Hydrocortisone-17-oxo-21-thioesters, their preparation and their uses as medicaments” (Jouveinal S.A., priority 1983, dated 1991)",
  "data": [
    {"assay": "Dissociation ratio R local anti-inflammatory activity / systemic activity", "assay_type": "in vivo, mouse (ear inflammation) and rat (thymus)", "conditions": "comparison with hydrocortisone-21-acetate = 1", "procedure": "(§1) The results obtained by this study make it possible to calculate the activity ratio:\n(§2) local anti-inflammatory activity\n(§3) The value of this ratio indicates the dissociation of the activities and is inversely proportional to the size of the dissociation, i.e. the lower this value, the greater the dissociation.\n(§4) This value was calculated on the basis of the expression: [formula]", "values": [
      {"molecule": "CCCCC(=O)O[C@]1(C(=O)CSC(C)=O)CC[C@H]2[C@@H]3C[C@H](C)C4=CC(=O)C=C[C@]4(C)[C@H]3[C@@H](O)C[C@@]21C", "note": "[6-α-methylprednisolone-21-thioacetate-17-valerate]", "R hydrocortisone-21-acetate / R studied product": 1.85},
      {"molecule": "CCCC(=O)O[C@]1(C(=O)CSC(C)=O)CC[C@H]2[C@@H]3CCC4=CC(=O)CC[C@]4(C)[C@H]3[C@@H](O)C[C@@]21C", "note": "[Example 1, 3,20-dione-11β-hydroxypregn-4-ene-21-thioacetate-17-butyrate]", "R hydrocortisone-21-acetate / R studied product": 930},
      {"molecule": "CCCC(=O)O[C@]1(C(=O)CSC(=O)CC)CC[C@H]2[C@@H]3CCC4=CC(=O)CC[C@]4(C)[C@H]3[C@@H](O)C[C@@]21C", "note": "[Example 2, 3,20-dione-11β-hydroxypregn-4-ene-21-thiopropionate-17-butyrate]", "R hydrocortisone-21-acetate / R studied product": 1528},
      {"molecule": "CCCC(=O)O[C@]1(C(=O)COC(=O)CC)CC[C@H]2[C@@H]3CCC4=CC(=O)CC[C@]4(C)[C@H]3[C@@H](O)C[C@@]21C", "note": "[Hydrocortisone-21-propionate-17-butyrate, hydrocortisone-21-propionate-17-butyrate]", "R hydrocortisone-21-acetate / R studied product": 32.8},
      {"molecule": "CC(C)(C)C(=O)SCC(=O)[C@@]1(O)CC[C@H]2[C@@H]3CCC4=CC(=O)CC[C@]4(C)[C@H]3[C@@H](O)C[C@@]21C", "note": "[Hydrocortisone-21-thiopivalate, hydrocortisone-21-thiopivalate]", "R hydrocortisone-21-acetate / R studied product": 31.0},
      {"molecule": "CCCCC(=O)O[C@]1(C(=O)COC(C)=O)CC[C@H]2[C@@H]3CCC4=CC(=O)C=C[C@]4(C)[C@H]3[C@@H](O)C[C@@]21C", "note": "[Prednisolone-21-acetate-17-valerate, prednisolone-21-acetate-17-valerate]", "R hydrocortisone-21-acetate / R studied product": 107.0},
      {"molecule": "CCCCC(=O)O[C@]1(C(=O)CSC(C)=O)CC[C@H]2[C@@H]3CCC4=CC(=O)C=C[C@]4(C)[C@H]3[C@@H](O)C[C@@]21C", "note": "[Prednisolone-21-thioacetate-17-valerate]", "R hydrocortisone-21-acetate / R studied product": 155},
      {"molecule": "CCC(=O)O[C@]1(C(=O)CSC(=O)CC)[C@@H](C)C[C@H]2[C@@H]3CCC4=CC(=O)C=C[C@]4(C)[C@@]3(Cl)[C@@H](O)C[C@@]21C", "note": "[beclomethasone-21-thiopropionate-17-propionate]", "R hydrocortisone-21-acetate / R studied product": 23.20},
      {"molecule": "CCC(=O)O[C@]1(C(=O)CSC(C)=O)[C@@H](C)C[C@H]2[C@@H]3CCC4=CC(=O)C=C[C@]4(C)[C@@]3(F)[C@@H](O)C[C@@]21C", "note": "[betamethasone-21-thioacetate-17-propionate]", "R hydrocortisone-21-acetate / R studied product": 5.35},
      {"molecule": "CCC(=O)SCC(=O)[C@@]1(OC(C)=O)[C@@H](C)C[C@H]2[C@@H]3CCC4=CC(=O)C=C[C@]4(C)[C@@]3(F)[C@@H](O)C[C@@]21C", "note": "[betamethasone-21-thiopropionate-17-acetate]", "R hydrocortisone-21-acetate / R studied product": 4.30},
      {"molecule": "CCC(=O)O[C@]1(C(=O)CSC(=O)CC)[C@@H](C)C[C@H]2[C@@H]3CCC4=CC(=O)C=C[C@]4(C)[C@@]3(F)[C@@H](O)C[C@@]21C", "note": "[betamethasone-21-thiopropionate-17-propionate]", "R hydrocortisone-21-acetate / R studied product": 49.40},
      {"molecule": "CC(=O)O[C@]1(C(=O)CSC(=O)CC(C)(C)C)[C@H](C)C[C@H]2[C@@H]3CCC4=CC(=O)C=C[C@]4(C)[C@@]3(F)[C@@H](O)C[C@@]21C", "note": "[dexamethasone-21-thiotertiobutylacetate-17-acetate]", "R hydrocortisone-21-acetate / R studied product": 7.0},
      {"molecule": "CC(=O)OCC(=O)[C@@]1(O)CC[C@H]2[C@@H]3CCC4=CC(=O)CC[C@]4(C)[C@H]3[C@@H](O)C[C@@]21C", "note": "[hydrocortisone-21-acetate]", "R hydrocortisone-21-acetate / R studied product": 1}
    ]},
    {"assay": "Dissociation ratio R local anti-inflammatory activity / systemic activity", "assay_type": "in vivo, mouse (ear inflammation) and rat (thymus)", "conditions": "prednisolone series, versus prednisolone-21-acetate-17-valerate", "procedure": "as §1, §2, §3, §4", "values": [
      {"molecule": "CCCCC(=O)O[C@]1(C(=O)CSC(C)=O)CC[C@H]2[C@@H]3CCC4=CC(=O)C=C[C@]4(C)[C@H]3[C@@H](O)C[C@@]21C", "note": "[Prednisolone-21-thioacetate-17-valerate]", "dissociation, times better than its oxygenated homologue": "approximately 1,5 times"}
    ]},
    {"assay": "Dissociation ratio R local anti-inflammatory activity / systemic activity", "assay_type": "in vivo, mouse (ear inflammation) and rat (thymus)", "conditions": "versus its homologue hydrocortisone-21-propionate-17-butyrate", "procedure": "as §1, §2, §3, §4", "values": [
      {"molecule": "CCCC(=O)O[C@]1(C(=O)CSC(=O)CC)CC[C@H]2[C@@H]3CCC4=CC(=O)CC[C@]4(C)[C@H]3[C@@H](O)C[C@@]21C", "note": "[Example 2, 3,20-dione-11β-hydroxypregn-4-ene-21-thiopropionate-17-butyrate]", "dissociation of the activities, times better than hydrocortisone-21-propionate-17-butyrate": "more than 45 times"}
    ]}
  ]
}
